Assay results as given in patent US20240301050A1.
These are yes or no findings as the source states them, for the method shown. Some entries that bind do so weakly or less than the wild type.

Target: T1, human Lrig-1 protein expressed on the surface of T cells (human) (UniProt Q96JA1)
T1 sequence: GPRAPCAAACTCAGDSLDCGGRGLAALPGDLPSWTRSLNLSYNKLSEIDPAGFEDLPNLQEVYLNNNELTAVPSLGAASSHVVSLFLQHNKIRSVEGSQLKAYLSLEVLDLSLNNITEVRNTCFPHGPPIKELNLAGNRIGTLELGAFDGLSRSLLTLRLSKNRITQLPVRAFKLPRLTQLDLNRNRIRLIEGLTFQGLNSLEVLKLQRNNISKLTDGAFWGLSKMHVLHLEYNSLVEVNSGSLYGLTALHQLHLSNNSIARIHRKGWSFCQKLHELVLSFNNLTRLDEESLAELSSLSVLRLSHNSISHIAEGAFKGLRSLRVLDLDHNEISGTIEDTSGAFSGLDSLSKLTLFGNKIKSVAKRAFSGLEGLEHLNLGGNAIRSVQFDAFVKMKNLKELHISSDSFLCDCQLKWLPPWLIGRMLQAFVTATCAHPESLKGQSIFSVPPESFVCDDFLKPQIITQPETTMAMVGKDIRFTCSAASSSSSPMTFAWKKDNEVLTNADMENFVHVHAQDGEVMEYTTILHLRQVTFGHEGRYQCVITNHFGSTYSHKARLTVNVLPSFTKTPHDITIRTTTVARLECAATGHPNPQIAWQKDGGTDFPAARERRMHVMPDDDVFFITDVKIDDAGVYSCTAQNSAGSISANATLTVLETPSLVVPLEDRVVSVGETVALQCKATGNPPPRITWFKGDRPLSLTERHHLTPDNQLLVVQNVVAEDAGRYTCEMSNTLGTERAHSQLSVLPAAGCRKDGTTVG
Assay: selection from a human scFv library on T cells transfected with Lrig-1 (SEQ ID NO: 2)

- binding: binds
B1: GTC310-01 (light and heavy chain amino acid sequences selected from the Human scFv library) (scFv, V domains shown)
VH: EVQLLESGGGLVQPGGSLRLSCAASGFTFSNYAMSWVRQAPGKGLEWVSVISHGGGSTYYADSVKGRFTISRDNSKNTLYLQMNSLRAEDTAVYYCARVISNCHLGVCYYSNGMDVWGQGTLVTVSS
VL: QLVLTQPPSVSAAPGQRVSISCSGSSSNIGDNYVSWYQQVPGSAPKLLIYDNNKRPSGIPDRFSASKSGTSATLGITGLQTGDEADYYCATWDGSLSAGRVFGGGTKLTVL
